Test results from patent US6482822B1, “N-(iminomethyl)amines derivatives, their preparation, their use as medicines and compositions containing them” (Societe de Conseils de Recherches et d'Applications …, priority 1998, dated 2002).
Counter-ions that a name gives are not always drawn. Some entries share one result that the patent states for a list of compounds. For part of these data: At least one compound was matched to its structure with a doubt left.

What was measured:
[1] = target: T1, neuronal constitutive NO synthase (Rattus norvegicus, UniProt P29476); assay: Effects on neuronal constitutive NO synthase of a rat's cerebellum ([3H]L-arginine to [3H]L-citrulline conversion); format: biochemical; details: Sprague-Dawley rat cerebellum homogenate; conversion of [3H]L-arginine into [3H]L-citrulline, 15 min
T1 construct: The reaction is initiated by adding 50 μl of homogenate; from tissue; host or cells: rat cerebellum homogenate (Sprague-Dawley, Charles River), centrifuged at 21000 g

[2] = system: lipidic peroxidation of the cerebral cortex; assay: Effects on lipidic peroxidation of the cerebral cortex of a rat (MDA concentration); format: biochemical; details: rat cerebral cortex homogenate; peroxidation initiated by FeCl2/EDTA/ascorbic acid; MDA quantified at 586 nm

SMILES	IC50 [1] [µM]	IC50 [2] [µM]
NC(=Nc1ccc(CCCC(=O)Nc2ccc(Oc3ccccc3)cc2)cc1)c1cccs1 [Example 30, 4-(4-{[Amino(2-thienyl)methylidene]amino}phenyl)N-(4-phenoxyphenyl)butanamide Hydrochloride]	< 3.5	< 30
NC(=Nc1ccc(CCCC(=O)Oc2ccc(Nc3ccccc3)cc2)cc1)c1cccs1 [Example 14, 4-Anilinophenyl-4-(4-{[amino(2-thienyl)methylidene]amino}-phenyl)butanoate]	–	< 30
NC(=Nc1ccc(CCNCc2ccc3c(c2)Sc2ccccc2N3)cc1)c1cccs1 [Example 36, N′-(4-{2-[(10H-Phenothiazin-3-ylmethyl)amino]ethyl}phenyl)-2-thiophenecarboximidamide]	< 3.5	< 30
NC(=Nc1ccc(CCNC(=O)c2ccccc2Nc2ccccc2)cc1)c1cccs1 [Example 26, N-(4-{[Amino(2-thienyl)methylidene]amino}phenethyl)-2-anilinobenzamide Hydrochloride]	< 3.5	–
NC(=Nc1ccc(CCCC(=O)Nc2ccc3[nH]c4ccccc4c3c2)cc1)c1cccs1 [Example 18, 4-(4-{[Amino(2-thienyl)methylidene]amino}phenyl)-N-(9H-carbazol-3-yl)butanamide Hydrochloride]	< 3.5	< 30
N=C(Nc1ccc(N2CCN(C(=O)Nc3ccc(Nc4ccccc4)cc3)CC2)cc1)c1cccs1 [Example 10, 1-{[(4-Phenylamino)phenylamino]carbonyl}-4-{4-{[2-thienyl(imino)methyl]amino}phenyl}-piperazine Hydrochloride]	< 3.5	–
N=C(Nc1ccc(OCC(=O)Nc2ccc(Nc3ccccc3)cc2)cc1)c1cccs1 [Example 3, {4-{[2-Thienyl(imino)methyl]amino}phenoxy}-N-[4-(phenylamino)phenyl]-acetamide Hydroiodide]	< 3.5	< 30
N=C(Nc1ccc(CCCC(=O)Nc2ccc(Nc3ccccc3)cc2)cc1)c1cccs1 [Example 5, 4-{[2-Thienyl(imino)methyl]amino}-N-[4-(phenylamino)phenyl]-benzenebutanamide Hydrochloride]	< 3.5	< 30
NC(=Nc1ccc(N2CCN(CCOc3ccc4c(c3)Nc3ccccc3S4)CC2)cc1)c1cccs1 [Example 22, N′-(4-{4-[2-(10H-Phenothiazin-2-yloxy)ethyl]-1-piperazinyl}phenyl)-2-thiophenecarboximidamide Dihydrochloride]	< 3.5	< 30
NC(=Nc1ccc(CCNC(=O)c2ccc(Oc3ccc(O)cc3)cc2)cc1)c1cccs1 [Example 31, N-(4-{[Amino(2-thienyl)methylidene]amino}phenethyl)-4-(4-hydroxyphenoxy)benzamide Hydrochloride]	< 3.5	–
Cc1cccc(Nc2ccccc2C(=O)NCCc2ccc(N=C(N)c3cccs3)cc2)c1C [Example 27, N-(4-{[Amino(2-thienyl)methylidene]amino}phenethyl)-2-(2,3-dimethylanilino)benzamide Hydrochloride]	< 3.5	–
N=C(Nc1ccc(CC(=O)Nc2ccc(Nc3ccccc3)cc2)cc1)c1cccs1 [Example 2, 4-{[2-Thienyl(imino)methyl]amino}-N-[4-(phenylamino)phenyl]-benzeneacetamide Hydrochloride]	–	< 30
NC(=Nc1ccc(CCCC(=O)Nc2ccc3c(c2)Sc2ccccc2N3)cc1)c1cccs1 [Example 21, 4-(4-{[Amino(2-thienyl)methylidene]amino}phenyl)-N-(10H-phenothiazin-3-yl)butanamide Hydrochloride]	< 3.5	< 30
NC(=Nc1ccc(Oc2ccc3c(c2)Nc2ccccc2S3)cc1)c1cccs1 [Example 19, N′-[4-(10H-Phenothiazin-2-yloxy)phenyl]-2-thiophenecarboximidamide Hydroiodide]	< 3.5	< 30
NC(=Nc1ccc(CCCCOc2cccc(Nc3ccccc3)c2)cc1)c1cccs1 [Example 16, N′-{4-[4-(3-Anilinophenoxy)butyl]phenyl}-2-thiophenecarboximidamide]	< 3.5	< 30
N=C(Nc1ccc(CCN(C(=O)O)c2ccc(Nc3ccccc3)cc2)cc1)c1cccs1 [Example 7, 2-{4-{[2-Thienyl(imino)methyl]amino}phenyl}-ethyl[4-(phenylamino)phenyl]-carbamate Hydrochloride]	< 3.5	< 30
N=C(Nc1ccc(Nc2ccccc2)cc1)c1cccs1 [Example 1, N-[4-(Phenylamino)phenyl]-2-thiophene-carboximidamide Hydroiodide]	–	< 30
NC(=Nc1ccc(CCCCOc2ccc(Nc3ccccc3)cc2)cc1)c1cccs1 [Example 15, N′-{4-[4-(4-Anilinophenoxy)butyl]phenyl}-2-thiophenecarboxinidamide]	< 3.5	< 30
NC(=Nc1ccc2[nH]c3ccccc3c2c1)c1cccs1 [Example 17, N′-(9H-Carbazol-3-yl)-2-thiophenecarboximidamide]	–	< 30
N=C(Nc1ccc(CCCCNc2ccc(Nc3ccccc3)cc2)cc1)c1cccs1 [Example 11, 4-{[2-Thienyl(imino)methyl]amino}-N-[4-(phenylamino)phenyl]-benzenebutanamine Hydrochloride]	< 3.5	–
N=C(Nc1ccc(N2CCN(CC(=O)Nc3ccc(Nc4ccccc4)cc3)CC2)cc1)c1cccs1 [Example 9, 4-{4-{[2-Thienyl(imino)methyl]amino}phenyl}-N-[4-(phenylamino)phenyl]-1-piperazine Acetamide Hydrochloride]	< 3.5	< 30
N=C(Nc1ccc(CCNC(=O)Nc2ccc(Nc3ccccc3)cc2)cc1)c1cccs1 [Example 8, N-{2-{4-{[2-Thienyl(imino)methyl]amino}phenyl}ethyl}-N′-[4-(phenylamino)phenyl]-urea Hydrochloride]	–	< 30
N=C(Nc1ccc(CCCC(=O)Nc2ccccc2Nc2ccccc2)cc1)c1cccs1 [Example 4, 4-{[2-Thienyl(imino)methyl]amino}-N-[2-(phenylamino)phenyl]-benzenebutanamide]	< 3.5	< 30
N=C(Nc1cccc(CCC(=O)Nc2ccc(Nc3ccccc3)cc2)c1)c1cccs1 [Example 12, 3-{[2-Thienyl(imino)methyl]amino}-N-[4-(phenylamino)phenyl]-benzenepropanamide Hydrochloride]	< 3.5	< 30
COc1ccc(Nc2ccc(NC(=O)CCCc3ccc(NC(=N)c4cccs4)cc3)cc2)cc1 [Example 6, 4-{[2-Thienyl(imino)methyl]amino}-N-[4-(4-methoxyphenylamino)phenyl]-benzenebutanamide Hydrochloride]	–	< 30
NC(=Nc1cccc(CNCCC(=O)Nc2ccc(Nc3ccccc3)cc2)c1)c1cccs1 [Example 35, 3-[(3-{[Amino(2-thienyl)methylidene]amino}-benzyl)amino]-N-(4-anilinophenyl)propanamide Trihydrochloride]	< 3.5	< 30
Cc1ccc(Nc2ccccc2NC(=O)CCCc2ccc(N=C(N)c3cccs3)cc2)cc1 [Example 13, 4-(4-{[Amino(2-thienyl)methylidene]amino}phenyl)-N-[2-(4-toluidino)phenyl]butanamide]	–	< 30
Cc1ccc(Nc2ccc(NC(=O)CCCc3ccc(N=C(N)c4cccs4)cc3)cc2)cc1 [Example 23, 4-(4-{[Amino(2-thienyl)methylidene]amino}phenyl)-N-[4-(4-toluidino)phenyl]butanamide Hydrochloride]	–	< 30
COc1ccc2c(c1C(=O)NCCc1ccc(N=C(N)c3cccs3)cc1)Nc1ccccc1S2 [Example 37, N-(4-{[Amino(2-thienyl)methylidene]amino}phenethyl)-2-methoxy-10H-phenothiazine-1-carboxamide Hydrochloride]	< 3.5	< 30
